In paper PMC7642295 one finds binding data, which are given here for eight molecules.

The chains behind the UniProt entries cited, without tags or fusion partners. Where a name states a change or a piece, a line headed by the entry shows the natural chain unless it says otherwise.
UniProt Q9Y238: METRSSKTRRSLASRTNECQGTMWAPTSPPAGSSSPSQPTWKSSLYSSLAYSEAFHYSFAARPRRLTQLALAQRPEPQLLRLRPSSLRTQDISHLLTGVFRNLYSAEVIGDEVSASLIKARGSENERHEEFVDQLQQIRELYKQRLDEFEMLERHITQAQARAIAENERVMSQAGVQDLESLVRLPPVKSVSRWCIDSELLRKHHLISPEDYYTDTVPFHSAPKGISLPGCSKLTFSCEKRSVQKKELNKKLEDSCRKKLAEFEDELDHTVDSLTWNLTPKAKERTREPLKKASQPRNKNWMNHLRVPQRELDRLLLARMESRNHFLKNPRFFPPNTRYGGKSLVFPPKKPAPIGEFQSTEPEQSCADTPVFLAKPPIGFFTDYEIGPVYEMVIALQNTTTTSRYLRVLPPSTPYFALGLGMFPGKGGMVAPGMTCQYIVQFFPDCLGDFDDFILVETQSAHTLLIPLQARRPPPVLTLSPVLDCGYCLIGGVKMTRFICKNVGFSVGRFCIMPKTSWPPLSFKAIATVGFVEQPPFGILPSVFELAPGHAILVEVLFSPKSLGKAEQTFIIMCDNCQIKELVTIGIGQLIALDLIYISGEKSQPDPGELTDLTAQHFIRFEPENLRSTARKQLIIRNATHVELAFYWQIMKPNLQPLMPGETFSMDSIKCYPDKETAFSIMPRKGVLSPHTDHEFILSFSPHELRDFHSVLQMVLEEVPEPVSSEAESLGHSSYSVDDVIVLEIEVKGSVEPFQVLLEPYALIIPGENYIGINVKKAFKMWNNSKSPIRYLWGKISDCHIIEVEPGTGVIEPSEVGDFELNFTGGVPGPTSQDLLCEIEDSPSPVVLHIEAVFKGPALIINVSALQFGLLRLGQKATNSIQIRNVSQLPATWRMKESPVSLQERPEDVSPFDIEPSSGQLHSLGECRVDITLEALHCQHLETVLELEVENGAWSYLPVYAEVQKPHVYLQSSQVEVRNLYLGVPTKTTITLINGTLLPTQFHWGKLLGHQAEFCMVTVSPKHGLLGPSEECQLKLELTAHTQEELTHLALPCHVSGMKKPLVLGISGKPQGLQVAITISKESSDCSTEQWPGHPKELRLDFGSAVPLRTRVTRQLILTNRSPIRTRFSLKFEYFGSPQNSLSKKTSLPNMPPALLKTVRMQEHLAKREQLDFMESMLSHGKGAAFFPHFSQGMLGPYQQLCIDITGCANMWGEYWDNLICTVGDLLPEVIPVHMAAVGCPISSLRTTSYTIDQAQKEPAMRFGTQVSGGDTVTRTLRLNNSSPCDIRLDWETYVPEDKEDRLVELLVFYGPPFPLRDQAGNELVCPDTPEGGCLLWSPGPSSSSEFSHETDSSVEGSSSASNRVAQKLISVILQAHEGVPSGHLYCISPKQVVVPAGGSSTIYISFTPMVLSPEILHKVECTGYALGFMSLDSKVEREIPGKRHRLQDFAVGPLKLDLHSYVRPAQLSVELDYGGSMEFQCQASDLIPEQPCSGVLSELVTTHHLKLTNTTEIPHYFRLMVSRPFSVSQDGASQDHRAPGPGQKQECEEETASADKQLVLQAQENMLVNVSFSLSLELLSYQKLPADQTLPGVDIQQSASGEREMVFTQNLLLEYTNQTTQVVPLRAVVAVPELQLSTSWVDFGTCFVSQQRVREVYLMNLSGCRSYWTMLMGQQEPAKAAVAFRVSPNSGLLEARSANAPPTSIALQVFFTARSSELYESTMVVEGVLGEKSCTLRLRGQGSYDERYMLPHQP

No constants are given. Whether binding was seen depends on the method and setting. Binding seen in cells or lysates may run through a third protein. Some entries that bind do so weakly or less than the wild type.

The chains are these.
B1: BBS2 (protein, UniProt Q9BXC9 1-721)
chain: MLLPVFTLKLRHKISPRMVAIGRYDGTHPCLAAATQTGKVFIHNPHTRNQHVSASRVFQSPLESDVSLLSINQAVSCLTAGVLNPELGYDALLVGTQTNLLAYDVYNNSDLFYREVADGANAIVLGTLGDISSPLAIIGGNCALQGFNHEGSDLFWTVTGDNVNSLALCDFDGDGKKELLVGSEDFDIRVFKEDEIVAEMTETEIVTSLCPMYGSRFGYALSNGTVGVYDKTSRYWRIKSKNHAMSIHAFDLNSDGVNELITGWSNGKVDARSDRTGEVIFKDNFSSAIAGVVEGDYRMDGHIQLICCSVDGEIRGYLPGTAEMRGNLMDTSAEQDLIRELSQKKQNLLLELRNYEENAKAELASPLNEADGHRGIIPANTRLHTTLSVSLGNETQTAHTELRISTSNDTIIRAVLIFAEGIFTGESHVVHPSIHNLSSSICIPIVPPKDVPVDLHLKAFVGYRSSTQFHVFESTRQLPRFSMYALTSLDPASEPISYVNFTIAERAQRVVVWLGQNFLLPEDTHIQNAPFQVCFTSLRNGGHLHIKIKLSGEITINTDDIDLAGDIIQSMASFFAIEDLQVEADFPVYFEELRKVLVKVDEYHSVHQKLSADMADHSNLIRSLLVGAEDARLMRDMKTMKSRYMELYDLNRDLLNGYKIRCNNHTELLGNLKAVNQAIQRAGRLRVGKPKNQVITACRDAIRSNNINTLFKIMRVGTASS
B2: T-complex protein 1 subunit delta isoform a (protein, UniProt P50991-1 1-539)
chain: MPENVAPRSGATAGAAGGRGKGAYQDRDKPAQIRFSNISAAKAVADAIRTSLGPKGMDKMIQDGKGDVTITNDGATILKQMQVLHPAARMLVELSKAQDIEAGDGTTSVVIIAGSLLDSCTKLLQKGIHPTIISESFQKALEKGIEILTDMSRPVELSDRETLLNSATTSLNSKVVSQYSSLLSPMSVNAVMKVIDPATATSVDLRDIKIVKKLGGTIDDCELVEGLVLTQKVSNSGITRVEKAKIGLIQFCLSAPKTDMDNQIVVSDYAQMDRVLREERAYILNLVKQIKKTGCNVLLIQKSILRDALSDLALHFLNKMKIMVIKDIEREDIEFICKTIGTKPVAHIDQFTADMLGSAELAEEVNLNGSGKLLKITGCASPGKTVTIVVRGSNKLVIEEAERSIHDALCVIRCLVKKRALIAGGGAPEIELALRLTEYSRTLSGMESYCVRAFADAMEVIPSTLAENAGLNPISTVTELRNRHAQGEKTAGINVRKGGISNILEELVVQPLLVSVSALTLATETVRSILKIDDVVNTR
B3: T-complex protein 1 subunit beta isoform 2 (protein, UniProt P78371-2 1-488)
chain: MDKILLSSGRDASLMVTNDGATILKNIGVDNPAAKVLVDMSRVQDDEVGDGTTSVTVLAAELLREAESLIAKKIHPQTIIAGWREATKAAREALLSSAVDHGSDEVKFRQDLMNIAGTTLSSKLLTHHKDHFTKLAVEAVLRLKGSGNLEAIHIIKKLGGSLADSYLDEGFLLDKKIGVNQPKRIENAKILIANTGMDTDKIKIFGSRVRVDSTAKVAEIEHAEKEKMKEKVERILKHGINCFINRQLIYNYPEQLFGAAGVMAIEHADFAGVERLALVTGGEIASTFDHPELVKLGSCKLIEEVMIGEDKLIHFSGVALGEACTIVLRGATQQILDEAERSLHDALCVLAQTVKDSRTVYGGGCSEMLMAHAVTQLANRTPGKEAVAMESYAKALRMLPTIIADNAGYDSADLVAQLRAAHSEGNTTAGLDMREGTIGDMAILGITESFQVKRQVLLSAAEAAEVILRVDNIIKAAPRKRVPDHHPC
B4: T-complex protein 1 subunit gamma isoform c (protein, UniProt P49368-2 1-507)
chain: MMGHRPVLVLSQNTKRESGRKVQSGNINAAKIQVQHPAAKSMIEISRTQDEEVGDGTTSVIILAGEMLSVAEHFLEQQMHPTVVISAYRKALDDMISTLKKISIPVDISDSDMMLNIINSSITTKAISRWSSLACNIALDAVKMVQFEENGRKEIDIKKYARVEKIPGGIIEDSCVLRGVMINKDVTHPRMRRYIKNPRIVLLDSSLEYKKGESQTDIEITREEDFTRILQMEEEYIQQLCEDIIQLKPDVVITEKGISDLAQHYLMRANITAIRRVRKTDNNRIARACGARIVSRPEELREDDVGTGAGLLEIKKIGDEYFTFITDCKDPKACTILLRGASKEILSEVERNLQDAMQVCRNVLLDPQLVPGGGASEMAVAHALTEKSKAMTGVEQWPYRAVAQALEVIPRTLIQNCGASTIRLLTSLRAKHTQENCETWGVNGETGTLVDMKELGIWEPLAVKLQTYKTAVETAVLLLRIDDIVSGHKKKGDDQSRQGGAPDAGQE
B5: BBS6 (protein, UniProt Q9NPJ1 1-570)
chain: MSRLEAKKPSLCKSEPLTTERVRTTLSVLKRIVTSCYGPSGRLKQLHNGFGGYVCTTSQSSALLSHLLVTHPILKILTASIQNHVSSFSDCGLFTAILCCNLIENVQRLGLTPTTVIRLNKHLLSLCISYLKSETCGCRIPVDFSSTQILLCLVRSILTSKPACMLTRKETEHVSALILRAFLLTIPENAEGHIILGKSLIVPLKGQRVIDSTVLPGILIEMSEVQLMRLLPIKKSTALKVALFCTTLSGDTSDTGEGTVVVSYGVSLENAVLDQLLNLGRQLISDHVDLVLCQKVIHPSLKQFLNMHRIIAIDRIGVTLMEPLTKMTGTQPIGSLGSICPNSYGSVKDVCTAKFGSKHFFHLIPNEATICSLLLCNRNDTAWDELKLTCQTALHVLQLTLKEPWALLGGGCTETHLAAYIRHKTHNDPESILKDDECTQTELQLIAEAFCSALESVVGSLEHDGGEILTDMKYGHLWSVQADSPCVANWPDLLSQCGCGLYNSQEELNWSFLRSTRRPFVPQSCLPHEAVGSASNLTLDCLTAKLSGLQVAVETANLILDLSYVIEDKN
B6: BBS5 (protein, UniProt Q8N3I7 1-341)
chain: MSVLDALWEDRDVRFDLSAQQMKTRPGEVLIDCLDSIEDTKGNNGDRGRLLVTNLRILWHSLALSRVNVSVGYNCILNITTRTANSKLRGQTEALYILTKCNSTRFEFIFTNLVPGSPRLFTSVMAVHRAYETSKMYRDFKLRSALIQNKQLRLLPQEHVYDKINGVWNLSSDQGNLGTFFITNVRIVWHANMNDSFNVSIPYLQIRSIKIRDSKFGLALVIESSQQSGGYVLGFKIDPVEKLQESVKEINSLHKVYSASPIFGVDYEMEEKPQPLEALTVEQIQDDVEIDSDGHTDAFVAYFADGNKQQDREPVFSEELGLAIEKLKDGFTLQGLWEVMS
B7: BBS4 (protein, UniProt Q96RK4 1-519)
chain: MAEERVATRTQFPVSTESQKPRQKKAPEFPILEKQNWLIHLHYIRKDYEACKAVIKEQLQETQGLCEYAIYVQALIFRLEGNIQESLELFQTCAVLSPQSADNLKQVARSLFLLGKHKAAIEVYNEAAKLNQKDWEISHNLGVCYIYLKQFNKAQDQLHNALNLNRHDLTYIMLGKIHLLEGDLDKAIEVYKKAVEFSPENTELLTTLGLLYLQLGIYQKAFEHLGNALTYDPTNYKAILAAGSMMQTHGDFDVALTKYRVVACAVPESPPLWNNIGMCFFGKKKYVAAISCLKRANYLAPFDWKILYNLGLVHLTMQQYASAFHFLSAAINFQPKMGELYMLLAVALTNLEDIENAKRAYAEAVHLDKCNPLVNLNYAVLLYNQGEKKNALAQYQEMEKKVSLLKDNSSLEFDSEMVEMAQKLGAALQVGEALVWTKPVKDPKSKHQTTSTSKPASFQQPLGSNQALGQAMSSAAAYRTLPSGAGGTSQFTKPPSLPLEPEPAVESSPTETSEQIREK

In the assay the target is 3 × FLAG-tagged human DLEC1 (deleted in lung and esophageal cancer 1) (human) (UniProt Q9Y238). The assay can be described thus: co-IP; 3 × FLAG-hDLEC1 or empty vector expressed in HEK293F; lysate incubated overnight with 1 µg anti-FLAG antibody and protein G-agarose beads at 4 °C; western blotting with antibodies to the endogenous partners.
On to “T-complex protein 1 subunit epsilon isoform a (from UniProt P48643-1 1-541)”, for which the binding entry was “binds”.

For the molecule B1, the binding result is “binds”.

Regarding B2, the binding result is given as “binds”.

B3: the binding result is “binds”.

On to B4, for which the binding entry is on record as “binds”.

For B5, the binding entry was “binds”.

Turning to B6, the binding entry is reported as “binds”.

With B7, the binding result was “binds”.
